The nature of this assay: qHTS Assay for Lipid Storage Modulators in Drosophila S3 Cells.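 As to cell number change: cells counted by Cell Tracker Red CMTPX staining in the red channel.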 The settings on record: BODIPY lipid droplet fluorescence, 18-24 h; for cell number change: measured here: cell count max response, cells fed with added oleic acid. In outline:
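Laser-scanning cytometry quantifies lipid droplet accumulation (500–530 nm total intensity; droplet/cell object ratio) in oleic acid-fed (400 uM added) Drosophila S3 cells treated with a concentration series. 20 uM Triacsin C defined 100% inhibition.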
For orientation: In qHTS, concentration-response curves come from the screen itself.

Where [1] appears, read: measured here: lipid fluorescence (Fed channel) AC50, cells fed with added oleic acid.
[2] abbreviates: measured here: cell number channel AC50, cells fed with added oleic acid.

SMILES strings stand for the structures. Some of the results follow. Shown are side measurements of this screen, not its main read-out; they come without a call. Most of these compounds were active or inconclusive in the main read-out, so they are no random draw. The note in brackets gives the kind of curve behind each potency; many fits are weak.

Broadly, the AC50 is the concentration giving half of the maximal activity seen. The low end stands for activity at low concentration, the high end for activity only at high concentration.

Turning to `O=C(CCn1cnc2ccccc2c1=O)Nc1ccc(S(=O)(=O)N2CCCCC2)cc1`, the cell number change was -17.2%. The half-maximal activity concentration (AC50) under setting [1] was 25.9 µM [falling, single point]. On to `CCCC(C)c1nnc(NC(=O)CCS(=O)(=O)Cc2ccccc2)s1` (stereo not given), for which the cell number change was found to be 14.6%. Further, the AC50 under setting [1] was 25.9 µM [rising, single point].

For `O=Cc1cc2ccccc2nc1SCc1ccc(Cl)cc1`, the cell number change is -19.9%. Besides, the AC50 under setting [1] is 4.61 µM [falling, full curve]. As for `CCc1sc(C(=O)N2CCc3ccccc32)cc1C`, the cell number change came to 14.6%. Consider `COc1ccc(S(=O)(=O)N2Cc3ccccc3CC2C(=O)O)cc1OC` (stereo not given), for which the cell number change is 14.8%. Also, the AC50 under setting [1] was 0.731 µM [rising, single point]. With `COc1ccc(N2CCN(C(=O)CC(C)S(=O)(=O)c3ccc4c(c3)NC(=O)CO4)CC2)cc1` (stereo not given), the cell number change is -46.4%. Consider `COC(=O)c1cc(OC)c(OC)cc1NCC(=O)Nc1cccc(C(F)(F)F)c1`, for which the cell number change was -50%. Besides, under setting [2], the AC50 is 1.03 µM [falling, full curve]. With `Cc1ccc(C(=O)NCCNC(=O)c2ccco2)cn1`, the cell number change amounted to 13.1%. Take `CN1CCN(Cc2oc(CO)cc(=O)c2O)CC1`: the cell number change is -12.5%. The AC50 under setting [2] is 1.84 µM [falling, partial curve]. For `CCn1cnc2c1c(=O)n(CC(=O)Nc1ccc3c(c1)OC(F)(F)O3)c(=O)n2Cc1ccccc1`, the AC50 under setting [1] was 6.51 µM [rising, single point]. For `Cc1ccc(-c2csc3nc(C)n(N)c(=O)c23)o1`, the cell number change is 87.5%. Moreover, under setting [2], the AC50 is 0.58 µM [rising, full curve]. The AC50 under setting [1] is 0.517 µM [rising, partial curve]. For the compound `O=C(Cc1c(C(=O)O)[nH]c2ccc(Cl)cc12)Nc1ccc2c(c1)OCCO2`, the cell number change is -12.4%. Also, under setting [1], the AC50 is 0.0517 µM [falling, full curve, poor fit]. On to `O=C(NCCc1ccc(C(F)(F)F)cc1)C1CC(=O)N(c2ccc3c(c2)OCCO3)C1` (stereo not given), for which the cell number change came out at 18.7%. Besides, the AC50 under setting [2] is 0.366 µM [rising, partial curve, poor fit]. With `Cc1ccc2cc(CN(CCCO)S(=O)(=O)c3ccccc3F)c(=O)[nH]c2c1C`, the cell number change was determined as 3.04%. With `COc1ccccc1CNCC(O)Cn1c2ccccc2c2ccccc21` (stereo not given), the cell number change is -31.6%. The AC50 under setting [2] was 29.1 µM [falling, single point]. In addition, the AC50 under setting [1] is 0.103 µM [rising, full curve, poor fit].

Turning to `N#C/C(=C(/O)CN1C(=O)c2ccccc2C1=O)c1nc2ccccc2[nH]1`, the cell number change is -1.29%.

Regarding `CC(C)c1cc(=O)[nH]c(N2CCN(Cc3ccc4c(c3)OCO4)CC2)n1`, the cell number change amounted to 5.47%. For the same compound, the AC50 under setting [2] was 3.66 µM [rising, partial curve, poor fit]. The AC50 under setting [1] is 1.46 µM [rising, partial curve]. Regarding `CC1=NS(=O)(=O)c2cc(Cl)ccc2N1`, the cell number change was -23.9%. For the same compound, under setting [1], the AC50 was 14.6 µM [rising, single point].

Take `CCOC(=O)CNc1ncc(C(F)(F)F)cc1Cl`: the cell number change is 45.2%. Moreover, the AC50 under setting [2] was 18.4 µM [rising, single point]. Consider `CC(C)(C)CC(=O)Nc1ccc(Nc2ccccc2)cc1`, for which the cell number change was -17.2%. Further, the AC50 under setting [1] is 6.51 µM [rising, single point].

On to `COc1ccc(OC)c(-n2nnnc2SCC(=O)Nc2nc(C)c(C)s2)c1`, for which the cell number change was 20.7%. The AC50 under setting [1] was 23.1 µM [rising, single point]. In the case of `CCOc1ccc(NC(=O)COc2ccc(C(=O)NCc3cccnc3)cc2OC)cc1`, the cell number change came to 59.4%. Moreover, the AC50 under setting [2] is 8.2 µM [rising, partial curve, poor fit]. The concentration at half-maximal activity (AC50) under setting [1] is 6.51 µM [rising, partial curve].

Turning to `CCOC(=O)C1CCN(C(=O)C2CCN(S(=O)(=O)c3ccc4ccccc4c3)CC2)CC1`, the cell number change is -5.53%. Under setting [2], the AC50 is 0.112 µM [falling, full curve, poor fit].

For `COC(=O)c1ccc(C2C(Oc3ccc(OC)cc3)C(=O)N2CCc2ccc(F)cc2)cc1` (stereo not given), the cell number change amounted to 43.5%. Also, the AC50 under setting [2] is 0.411 µM [rising, full curve, poor fit].

As to `COc1ccc(/C=C(/NC(=O)c2ccco2)C(=O)N2CCCCC2)cc1`, the cell number change is -4.14%.

For the compound `Cc1nn(C)c(C(=O)N/N=C/c2cc3c(cc2Br)OCO3)c1Br`, the cell number change was 22.3%. The AC50 under setting [1] was 3.26 µM [rising, partial curve]. `O=[N+]([O-])c1cc([N+](=O)[O-])c2cccnc2c1O`: the cell number change is -58%. The AC50 under setting [2] is 29.1 µM [falling, partial curve, poor fit]. Besides, the AC50 under setting [1] was 29.1 µM [falling, single point]. `CN(C)CCCNC(=O)/C(=C\C=C\c1ccccc1)NC(=O)c1ccc([N+](=O)[O-])cc1`: the cell number change came out at 16.8%. Under setting [1], the AC50 was 0.517 µM [rising, full curve, poor fit]. Take `COc1cccc(CN(C)C(=O)C2CCN(S(=O)(=O)c3cccs3)CC2)c1OC`: the cell number change is 45.1%. Besides, the AC50 under setting [2] is 7.31 µM [rising, partial curve, poor fit]. Further, the AC50 under setting [1] is 29.1 µM [rising, single point].

Consider `Cc1ccc(S(=O)(=O)NCC2CCC(C(=O)NCc3ccco3)CC2)cc1` (stereo not given), for which the AC50 under setting [1] is 0.58 µM [falling, single point]. As for `COc1ccccc1NC(=O)CSc1nnc(C)n1CCc1ccccc1`, the cell number change is -40.6%. Besides, the AC50 under setting [2] is 29.1 µM [falling, single point].

For the compound `CS(=O)(=O)N1CCC(C(=O)Nc2ccccc2Sc2ccccc2)CC1`, the cell number change turned out to be 69.5%. The AC50 under setting [2] is 11.6 µM [rising, partial curve]. `Cc1cc(-c2n[nH]c(=S)n2/N=C/c2ccc(Br)s2)n[nH]1`: the cell number change came out at 1.07%. Under setting [1], the AC50 was 0.517 µM [rising, partial curve, poor fit]. `CC(C)C[C@H](NC(=O)c1[nH]cnc1C(=O)N[C@@H](Cc1ccccc1)C(=O)OCc1ccccc1)C(=O)OC(C)(C)C`: the cell number change is 53.9%. Under setting [2], the AC50 was 10.3 µM [rising, partial curve, poor fit]. In addition, the AC50 under setting [1] is 0.291 µM [falling, partial curve, poor fit]. Turning to `Cc1ccc(NS(=O)(=O)c2sc3ccc(Cl)cc3c2C)cc1`, the cell number change was -67.9%. In addition, under setting [2], the half-maximal activity concentration (AC50) is 11.6 µM [falling, partial curve]. Besides, the AC50 under setting [1] was 18.4 µM [falling, partial curve]. Take `COc1ccc(CCNC(=O)C(=O)N2CCCC2)cc1OC`: the cell number change is -38.2%. In addition, the AC50 under setting [2] is 5.8 µM [falling, full curve]. Besides, the AC50 under setting [1] is 5.8 µM [falling, full curve]. In the case of `O=C(NCCCNCCCNC(=O)c1ccccn1)c1ccccn1`, the cell number change was -17.8%. Besides, the half-maximal activity concentration (AC50) under setting [1] is 0.116 µM [falling, full curve, poor fit]. As for `CCc1cc(=O)n2[nH]c(C)c(-c3ccc(OC)cc3)c2n1`, the cell number change is -18%. On to `Cc1ccc(N(Cc2ccc([N+](=O)[O-])cc2)C(=O)c2ccco2)cc1`, for which the cell number change is -12.6%. Also, the AC50 under setting [1] was 0.00517 µM [rising, full curve, poor fit].

In the case of `Cc1ccc(C)c(NC(=O)C(OC(=O)c2ccc(CO)cc2)c2ccccc2)c1` (stereo not given), the cell number change turned out to be 42.2%. Further, the AC50 under setting [2] was 0.366 µM [rising, full curve]. Consider `COc1cccc(NC(=O)CN(C)C(=O)C(Sc2ccccc2)c2ccccc2)c1` (stereo not given), for which the cell number change is -10.1%. The AC50 under setting [1] is 0.116 µM [falling, full curve, poor fit].

Turning to `CCCSc1oc(-c2ccco2)nc1S(=O)(=O)c1ccc(C)cc1`, the cell number change was 19%. Further, the AC50 under setting [1] is 0.116 µM [rising, full curve, poor fit]. For the compound `CCOC(=O)N1CCN(C(=O)CSc2ccc3nnc(-c4ccccn4)n3n2)CC1`, the cell number change is 28.5%. For `CCOC(=O)c1c(NC(=O)COC(=O)c2ccc([N+](=O)[O-])cc2)sc(C(=O)N(C)C)c1C`, the cell number change was -25%. Also, the AC50 under setting [2] was 2.06 µM [falling, full curve, poor fit]. The AC50 under setting [1] is 18.4 µM [rising, single point]. For `Cc1nn(CC(=O)N2CCc3ccccc3C2)c(C)c1Cl`, the cell number change was -24.5%. For `CCOC(=O)C1=C(C)NC2=C(C(=O)CCC2)C1c1ccsc1` (stereo not given), the cell number change stood at 2.75%.

For the compound `CCOc1ccc(NC(=O)C2CC(=O)N(CCc3ccccc3)C2)cc1OC` (stereo not given), the cell number change was -35.1%. For the same compound, the AC50 under setting [2] was 29.1 µM [falling, single point]. In addition, the AC50 under setting [1] is 20.6 µM [falling, partial curve, poor fit]. Turning to `CCCC(=O)Nc1ccc(-c2csc(NNC(C)=O)n2)cc1`, the cell number change is 23.4%. In the case of `O=S(=O)(NCCC1=CCCCC1)c1cccc(Br)c1`, the cell number change was 60.3%. For the same compound, the AC50 under setting [2] is 16.4 µM [rising, partial curve]. For the compound `Cc1ccccc1NC(=O)Cn1nc(-c2ccc(Cl)s2)ccc1=O`, the cell number change was -13.1%. Further, the AC50 under setting [1] was 29.1 µM [falling, single point].

In the case of `COc1ccc(-n2c(SCC(=O)Nc3ccc(Br)cc3)nc(O)cc2=O)cc1`, the cell number change worked out at 17.3%. Further, the AC50 under setting [1] was 29.1 µM [falling, single point].

In the case of `O=C(COc1ccc2c(c1)CCC2)NCc1ccc(Cl)cc1`, the cell number change is -3.75%. Also, the AC50 under setting [2] is 0.13 µM [falling, full curve, poor fit]. Regarding `CCc1noc(C)c1C(=O)Nc1ccc(-c2nnc3n2CCCCC3)cc1`, the AC50 is, setting by setting: under setting [2], 0.103 µM [falling, full curve, poor fit]; under setting [1], 0.651 µM [falling, single point]. `O=[N+]([O-])c1cc([N+](=O)[O-])c2cc3ccccc3nc2c1`: under setting [1], the half-maximal activity concentration (AC50) is 11.6 µM [falling, single point]. Take `NS(=O)(=O)c1ccc(CCNC(=O)CCCNC(=O)c2ccc(Cl)cc2)cc1`: the cell number change came out at 30.6%. In addition, the concentration at half-maximal activity (AC50) under setting [1] was 29.1 µM [rising, partial curve]. `COc1ccc(NS(=O)(=O)c2ccc(NS(=O)(=O)c3cccs3)cc2)cc1`: the cell number change is 15.2%. Under setting [2], the AC50 is 2.91 µM [rising, partial curve]. Besides, under setting [1], the AC50 is 6.51 µM [falling, single point].

Regarding `Cn1c(CC(=O)Nc2ccccc2Cl)nnc1SCC(=O)Nc1nncs1`, the cell number change turned out to be 6.35%. Besides, the AC50 under setting [1] was 29.1 µM [rising, single point].

For the compound `COc1ccccc1Oc1coc2c(CN3CCOCC3)c(O)ccc2c1=O`, the cell number change is -4.77%. Also, the AC50 under setting [2] is 0.00461 µM [falling, full curve, poor fit]. The AC50 under setting [1] was 0.651 µM [falling, single point].

The record behind these values is PubChem BioAssay AID2685 (National Center for Advancing Translational Sciences (NCATS), 2010).
